We go through 83 compounds from PubChem BioAssay AID743402 (Broad Institute, 2014).

Each structure is given as a SMILES string. Screen size: about 1,200 compounds; about 140 (12%) were called active.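 How the source made its calls: active means fitted curve falls past -35% activity change at a dose under twice the top valid dose, in every replicate test; inconclusive means replicate tests disagree on the call; inactive means the rest, including activity in the opposite direction.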 The list lacks most of the strong results.

The test can be described thus: CFTR-F508del correctors, dose response, FRT cells, YFP quenching, cherry-pick (AID 743402).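 Further: compounds act as correctors raising surface CFTR-F508del before acute activation.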 The conditions noted are these: FRT CFTR-F508del YFP iodide quenching, 24 h, channel opened with forskolin and a potentiator; at 26 µM (top of the series) unless noted.
Take `CCCCNC(=O)CSc1nc2ccc(C)cc2[nH]1`: the activity change, negative = more quenching (active) is inactive: 16.2%. For `C[C@@H]1CN([C@H](C)CO)S(=O)(=O)c2ccc(-c3ccc(C#N)cc3)cc2O[C@H]1CN(C)Cc1cccc(F)c1` the value was inactive: 0%; for `Cc1ccc(/C=N/NC(=O)c2c(-c3ccccc3)noc2C)c(O)c1`, inactive: 12.9%; for `CCCc1nc(SC2CCCC2)c2c(=O)n(C)c(=O)n(C)c2n1`, inactive: 3.33%.

Regarding `Cn1cc(C(=O)OCC2CCN(CCNS(C)(=O)=O)CC2)c2ccccc21`, the activity change, negative = more quenching (active) is inactive: 12.5%. The value for `COc1cc(OC)cc(C(=O)c2c(C)c(C#N)c3ccccn23)c1` was inactive: -14.3%; that for `COc1ccccc1NC(=S)N(Cc1ccco1)Cc1cc2cc(C)cc(C)c2[nH]c1=O` was inactive: -13.3%. For `O=C(O)c1ccccc1-c1nc(-c2ccccc2)c(-c2ccccc2)[nH]1` the value was inactive: 3.12%; for `COc1ccc(Nc2nc3cc(-c4sccc4C)sc3c(=O)n2C)cc1OC`, inactive: -35.7%. For `CCCCC1(C2CCCC2)NC(=O)NC1=O` (stereo not drawn) the value was inactive: 13.3%. Regarding `CCOC(=O)c1c(C)[nH]c(C)c1C(=O)COC(=O)c1ccc([N+](=O)[O-])s1`, the activity change, negative = more quenching (active) is inactive: 13.1%.

As for `c1ccc(CCN(Cc2ccccc2)Cc2nc(C3CC3)no2)cc1`, the activity change, negative = more quenching (active) was inactive: 0%.

`CCOc1ccc(C(=O)NCC(=O)NNC(=O)c2cc(C)oc2C)cc1OCC`: the activity change, negative = more quenching (active) was inactive: 10.7%. Consider `COc1ccc(S(=O)(=O)Nc2ccc3c(c2)C(=O)N([C@@H](C)CO)C[C@H](C)[C@H](CN(C)Cc2ccc(Cl)c(Cl)c2)OCCCC[C@@H](C)O3)cc1`, for which the activity change, negative = more quenching (active) is inactive: -3.57%. The value for `CCCC(=O)Nc1ccc2c(c1)C(=O)N(C)C[C@@H](OC)[C@H](C)CN(C(=O)CN1CCOCC1)[C@H](C)CO2` was inactive: 17.9%; that for `Cc1ccc(-n2nnnc2SCC(=O)NC(C(=O)O)(c2ccccc2)c2ccccc2)cc1C` was inactive: 3.33%. The value for `Cc1cc(C)c2nc(Cl)c(CN(Cc3ccco3)C(=O)Nc3ccccc3C)cc2c1` was inactive: 13.3%; that for `O=[N+]([O-])c1ccc(N=Nc2c(Cl)cc(O)cc2Cl)cc1` was inactive: 18.8%; that for `COc1ccc2c(c1)sc(N)[n+]2Cc1cc(C)cc2cccnc12` was inactive: 13.3%.

Turning to `NC(=O)CC(NC(=O)Cc1ccc(Br)cc1)c1ccc(NC2CC3CCC2C3)c([N+](=O)[O-])c1` (stereo not drawn), the activity change, negative = more quenching (active) was inactive: 10%.

As for `COC(=O)c1ccc(S(=O)(=O)N2CCc3ccccc32)cc1`, the activity change, negative = more quenching (active) was inactive: -7.69%.

Take `Cc1ccc(Nc2nc(CSc3nnc(-c4cccnc4)n3-c3ccccc3F)cs2)cc1`: the activity change, negative = more quenching (active) was inactive: 0%. The value for `CCN(CC)c1ccc(/C=N/NC(=O)c2cnccn2)c(O)c1` was inactive: 3.33%; that for `CC1=NN(c2ccccc2)C(=O)C1N=Nc1cccc(O)c1` (stereo not drawn) was inactive: 0%; that for `CCN(C(=O)COC(=O)c1cc(-c2ccccc2)nc2c1c(C)nn2-c1ccc(C)cc1)C1CCS(=O)(=O)C1` (stereo not drawn) was inactive: -17.9%.

On to `COc1ccc(NC(=O)C2(C)Cc3c(-c4cccc(NC(C)=O)c4)ccnc3O2)cc1` (stereo not drawn), for which the activity change, negative = more quenching (active) is inactive: 13.3%. `Cc1ccc(N2CC(C(=O)N(C)CC(=O)Nc3ccc(Cl)c(C(F)(F)F)c3)CC2=O)cc1` (stereo not drawn): the activity change, negative = more quenching (active) was inactive: 3.33%.

Consider `COC(=O)C1(C)CCCC2(C)C3CCC(C(C)C)C(CO)C3C(CO)CC12` (stereo not drawn), for which the activity change, negative = more quenching (active) is inactive: 13.3%.

On to `COc1ccc2c(c1OC)OCC2C` (stereo not drawn), for which the activity change, negative = more quenching (active) is inactive: 0%. For `COc1cc(OC)c2c(-c3cccc(-c4ccc(OC)c(F)c4)c3)cc(=O)oc2c1` the value was inactive: 6.67%; for `Cc1nn(C)c(C)c1/C=C/C(=O)O`, inactive: 16.2%.

For `O=C(C(Cc1ccccc1)n1cccc1)N1CCCCC1` (stereo not drawn), the activity change, negative = more quenching (active) was inactive: 6.67%. For `C#Cc1ccc(C(=O)Nc2ccc(N3CCC(C)CC3)c(C(N)=O)c2)cc1` the value was inactive: -3.12%. For `CO[C@@H](CN(C)S(=O)(=O)c1ccc(C)cc1)[C@H](C)CN([C@@H](C)CO)S(=O)(=O)c1cccc(Cl)c1` the value was inactive: 12.5%; for `COc1c(O[C@@H]2O[C@H](CO)[C@@H](O)[C@H](O)[C@H]2O)cc2c(c1OC)-c1ccc(SC)c(=O)cc1C(NC(C)=O)CC2` (stereo partly drawn), inactive: 14.3%; for `CCNC(=O)C1(C)CCN(C(=O)c2cc(F)ccc2C)C1` (stereo not drawn), inactive: 3.12%.

Regarding `COc1cc(OC)cc(-c2cc3ccc(OC)cc3cn2)c1`, the activity change, negative = more quenching (active) was inactive: -9.58%. The value for `COc1cccc(C2=CC(c3ccccc3)n3nnnc3N2)c1` (stereo not drawn) was inactive: -6.97%; that for `CO[C@@H]1CN(C)C(=O)c2cc(NC(=O)Nc3c(C)noc3C)ccc2OC[C@@H](C)N(C)C[C@@H]1C` was inactive: 0%.

Take `O=C(C[C@@H]1C[C@H]2c3cc(NC(=O)CC4CC4)ccc3O[C@H]2[C@H](CO)O1)NCc1cccc(F)c1`: the activity change, negative = more quenching (active) was inactive: 6.67%.

Turning to `O=C(CN1CCCC1)N/N=C/c1c(O)ccc2ccccc12`, the activity change, negative = more quenching (active) was inactive: -6.67%. Regarding `COc1ccc(-c2ccc3c(c2)[C@H]2[C@H](CCN2S(=O)(=O)c2ccc(OC)cc2)[C@@H](CO)N3)cc1`, the activity change, negative = more quenching (active) was inactive: -10.7% [at 23.5 µM].

Consider `CCN(C(=O)COc1ccc2ccc(=O)oc2c1)C1CCCCC1`, for which the activity change, negative = more quenching (active) is inactive: 17.9%.

`CCN(C(=O)COC(=O)c1cccc2ccccc12)c1c(N)n(Cc2ccccc2)c(=O)[nH]c1=O`: the activity change, negative = more quenching (active) was inactive: 3.33%.

Consider `C[C@@H]1CN([C@H](C)CO)S(=O)(=O)c2ccc(/C=C/c3ccccc3)cc2O[C@H]1CN(C)C(=O)NC1CCCCC1`, for which the activity change, negative = more quenching (active) is inactive: 5.17%. The value for `Cc1ccc(-c2ccc3c(c2)O[C@@H](CN(C)C(=O)Nc2ccc(F)cc2)[C@@H](C)CN([C@@H](C)CO)S3(=O)=O)cc1` was inactive: 10.7%; that for `Cc1ccc(C2NC(=O)c3ccccc3N2)c(C)c1` (stereo not drawn) was inactive: 3.33%; that for `COc1ccc2c3c([nH]c2c1)[C@@H](CO)N(S(=O)(=O)c1cn(C)cn1)CC31CCN(CC2CCCCC2)CC1` was inactive: 1.72%. For `Cc1ccc(C2(C)NC(=O)N(CC(=O)Nc3nc(-c4ccccn4)cs3)C2=O)cc1` (stereo not drawn) the value was inactive: -12.8%; for `NC(=O)c1cc(Cl)ccc1OCC(=O)NC1CC1`, inactive: 4.17%. The value for `Cc1cccc(N2CCN(C(=O)c3c(-c4ccccc4)noc3C)CC2)c1C` was inactive: 3.33%. As for `CC(C)CC1Nc2ncnc(N3CCN(c4ccccn4)CC3)c2N(Cc2ccc(Br)cc2)C1=O` (stereo not drawn), the activity change, negative = more quenching (active) was inactive: 3.33%. The value for `Cc1cccc(N(C)C(=O)c2cc3c(=O)[nH]c4ccc(C)cc4c3s2)c1` was inactive: -6.67%; that for `COCOc1cccc(CN2CCC(C)(Oc3cccc(C#N)c3)C2)c1` (stereo not drawn) was inactive: 22.3%; that for `C#C[C@]1(O)CC[C@H]2[C@@H]3CCc4cc(OC)ccc4[C@H]3CC[C@@]21C` was inactive: -31.7%. For `COc1cc(OC)cc(C(=O)N2CC(=O)Nc3ccccc32)c1` the value was inactive: -13.3%; for `CN(C[C@H](Cc1ccccc1)N(C[C@H](Cc1ccccc1)N(CCC(C)(C)C)N=O)N=O)N=O`, inactive: 0%; for `CCCNC(=O)c1ccc2c(=O)c(O)c(-c3cccc(Br)c3)[nH]c2c1`, inactive: 0%. The value for `CC(=O)OCC(=O)NCCCOc1cccc(CN2CCCCC2)c1` was inactive: -3.85%; that for `COCCCNc1nnc(Cc2ccc(Cl)cc2)c(=O)[nH]1` was inactive: -8.17%.

On to `Oc1ccc2ccccc2c1N=Nc1nccs1`, for which the activity change, negative = more quenching (active) is inactive: 17.8%.

As for `CCOc1ccc2c(c1)C(C)=CC(C)(C)N2S(=O)(=O)c1ccc(F)cc1`, the activity change, negative = more quenching (active) was inactive: 12.9%. For `O=C(NCc1ccccc1)C(c1ccc(-c2ccccc2)cc1)n1c(=O)c(-c2cc3ccccc3[nH]2)nc2ccccc21` (stereo not drawn) the value was inactive: -16%. The value for `COCCNC(=O)C1CCCN(C(=O)c2ccc3sccc3c2)CC1` (stereo not drawn) was inactive: 16.7%; that for `COc1cc(NC(=O)COC(=O)c2n[nH]c3ccccc23)c(C)cc1[N+](=O)[O-]` was inactive: 13.3%; that for `CC(C)Cc1ccc(-c2cc3nc(NCc4cccc(Cl)c4)ccn3n2)cc1` was inactive: -17.9%. Take `C[C@H]1CN([C@@H](C)CO)C(=O)c2cccc(NC(=O)Nc3ccc(C(F)(F)F)cc3)c2O[C@H]1CN(C)C(=O)NC1CCCCC1`: the activity change, negative = more quenching (active) is inactive: -5.3%. For `COc1cc(C(=O)N2CCC(C(N)=O)CC2)ccc1OCc1c(C)noc1C` the value was inactive: 0%. The value for `Cc1cc(Br)c(NC(=O)C(C)Sc2nnnn2C)c(Br)c1` (stereo not drawn) was inactive: 17.9%; that for `O=C(O)C1=C[C@@H](O)[C@@H](O)[C@H](O)C1` was inactive: -6.67%; that for `COC(=O)C[C@@H]1CC[C@@H]2[C@H](COc3ccc(NC(=O)c4cc(C)on4)cc3C(=O)N2C)O1` was inactive: -8.74%.

`COc1ccc(C(=O)OCC(=O)N2C(C)CCCC2C)cc1S(=O)(=O)N1CCOCC1` (stereo not drawn): the activity change, negative = more quenching (active) is inactive: 14.8%. For `CCOc1ccc(S(=O)(=O)N2CCCCC2)cc1NC(=O)c1ccccc1` the value was inactive: 10.3%; for `Cc1cc(NCc2ccccn2)n2nc(C)c(-c3ccccc3)c2n1`, inactive: 13.1%; for `O=C(Cc1ccccn1)NCC[C@H]1CC[C@@H](NC(=O)Nc2ccc(C(F)(F)F)cc2)[C@@H](CO)O1`, inactive: 7.14%. The value for `COc1cc(C(=O)NCC2CCCO2)ccc1OCc1ccc(Cl)cc1` (stereo not drawn) was inactive: 6.25%. `CCc1ccc(N2CC(C(=O)Nc3ccccc3N3CCCC3)CC2=O)cc1` (stereo not drawn): the activity change, negative = more quenching (active) is inactive: 6.67%.

Take `CC(=NNC(=S)N1CC2CCC(CC2)C1)c1cnccn1`: the activity change, negative = more quenching (active) is inactive: 23.3%. In the case of `CCOC(=O)C1=CN(Cc2cccc(I)c2)S(=O)(=O)N(C)C1C` (stereo not drawn), the activity change, negative = more quenching (active) was inactive: 11.3%. For `C[C@@H]1CN([C@@H](C)CO)C(=O)c2cc(C#CCN(C)C)cnc2O[C@H]1CN(C)Cc1ccc(-c2ccccc2)cc1` the value was inactive: 10.3%; for `COC(=O)c1[nH]c2c(c1C)C(=O)CC(c1cccc(OC)c1)C2` (stereo not drawn), inactive: 0%. `Cc1cc(NCc2ccccn2)n2ncc(-c3ccccc3)c2n1`: the activity change, negative = more quenching (active) is inactive: -3.33%.

For `Cc1ccc(C)c(NC(=O)CCC(=O)N/N=C/c2cc([N+](=O)[O-])ccc2O)c1`, the activity change, negative = more quenching (active) was inactive: 16.4%.
